The target of assay [1] is Oct4 (Pou5f1), endogenous in mouse embryonic stem cells (mouse (endogenous in mouse ESCs)) (UniProt P20263). Briefly: affinity purification with mass spectrometry; multimerised WT MORE dsDNA on FG magnetic beads (mutant DNA as control) incubated with Oct1 deficient mouse ESC lysate, 4 C, 4 h; washes 100, 200, 300 mM KCl; elution with 300 mM KCl and free DNA; LC-MS/MS, N = 3; Oct4 is held through the DNA.

Protein sequences, listed by entry. Tags and fused reporters are not part of them.
UniProt Q6ZPI0: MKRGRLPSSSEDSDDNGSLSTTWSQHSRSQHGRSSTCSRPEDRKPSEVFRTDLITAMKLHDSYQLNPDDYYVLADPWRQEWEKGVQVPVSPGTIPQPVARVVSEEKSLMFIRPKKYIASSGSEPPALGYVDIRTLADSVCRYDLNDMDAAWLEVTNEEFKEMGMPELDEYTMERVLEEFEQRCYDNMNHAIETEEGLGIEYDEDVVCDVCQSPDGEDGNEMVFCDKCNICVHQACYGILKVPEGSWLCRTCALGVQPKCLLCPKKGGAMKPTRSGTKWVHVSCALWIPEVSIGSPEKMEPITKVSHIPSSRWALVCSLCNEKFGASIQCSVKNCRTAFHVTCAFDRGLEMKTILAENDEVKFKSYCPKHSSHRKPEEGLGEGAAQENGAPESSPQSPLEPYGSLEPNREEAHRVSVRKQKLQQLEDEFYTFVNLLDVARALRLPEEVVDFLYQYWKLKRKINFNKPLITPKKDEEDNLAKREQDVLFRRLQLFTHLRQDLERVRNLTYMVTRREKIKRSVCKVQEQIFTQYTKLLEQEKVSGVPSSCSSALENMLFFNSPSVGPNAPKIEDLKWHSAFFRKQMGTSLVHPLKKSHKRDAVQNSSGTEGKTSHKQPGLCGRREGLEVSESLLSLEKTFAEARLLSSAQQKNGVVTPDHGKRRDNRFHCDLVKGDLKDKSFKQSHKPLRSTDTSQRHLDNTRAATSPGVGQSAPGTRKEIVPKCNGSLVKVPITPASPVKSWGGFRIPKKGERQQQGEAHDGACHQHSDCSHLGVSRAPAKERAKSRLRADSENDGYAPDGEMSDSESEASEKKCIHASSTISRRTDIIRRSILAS
UniProt P56546: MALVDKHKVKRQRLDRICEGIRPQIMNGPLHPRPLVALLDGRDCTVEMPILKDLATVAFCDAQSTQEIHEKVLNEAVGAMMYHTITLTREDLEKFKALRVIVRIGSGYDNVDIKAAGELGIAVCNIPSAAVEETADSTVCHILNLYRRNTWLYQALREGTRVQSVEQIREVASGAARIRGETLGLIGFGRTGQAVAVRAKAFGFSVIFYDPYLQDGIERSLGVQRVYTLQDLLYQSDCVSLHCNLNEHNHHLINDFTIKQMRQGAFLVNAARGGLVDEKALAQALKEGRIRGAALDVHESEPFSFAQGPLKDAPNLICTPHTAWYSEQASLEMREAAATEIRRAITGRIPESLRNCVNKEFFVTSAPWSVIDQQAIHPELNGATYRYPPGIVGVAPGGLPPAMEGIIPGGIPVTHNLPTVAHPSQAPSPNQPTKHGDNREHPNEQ

Assay [2] shares this target. The assay can be described thus: affinity purification with mass spectrometry; multimerised WT octamer dsDNA on FG magnetic beads (mutant DNA as control) incubated with Oct1 deficient mouse ESC lysate, 4 C, 4 h; washes 100, 200, 300 mM KCl; elution with 300 mM KCl and free DNA; LC-MS/MS, N = 3; Oct4 is held through the DNA.

No constants are given. Whether binding was seen depends on the method and setting. In cells and extracts the contact can be indirect. Here binding means that the protein was enriched with, or labelled near, the bait; the list need not be complete.

With “Jade1, endogenous in mouse embryonic stem cells (from UniProt Q6ZPI0 1-834)”, in assay [1], the binding entry was “binds”.

With “Ctbp2, endogenous in mouse embryonic stem cells (from UniProt P56546 1-445)”, in assay [2], the binding result was “binds”.
